# Experimental data: the supplement of paper PMC8728848
# The other results are listed elsewhere or left out.
# B1: BabA (Helicobacter pylori), O52269_HELPY (protein)
# chain: AEDDGFYMSAGYQIGEAAQMVKNTKGIQELSDNYENLSNLLTRYSTLNTLIKLSADPSAVNAARENLGASAKNLIGDTKNSPAYQAVLLAINAAVGFWNVVGYVTQCGGNANGQKSTSSTTIFNNEPGYRSTSITCSLNGHMPGYYGPMSIENFKKLNEAYQILQTALKNGLPALKENNGTVNVTYSYTCSGEGNDNCSLQTTGVTNQNNGTKTETQTIDGKSVTTTISSKVVDSQ
# What was measured:
# Experiment in all cases: glycan array binding signal (z-score within array); higher = stronger binding
# Conditions in all cases: glycan notation: IUPAC condensed, linker removed
# [1] = biological target: Gal(b1-4)GlcNAc(b1-2)Man(a1-6)[Man(a1-3)]Man(b1-4)GlcNAc(b1-4)GlcNAc
# How it was run: (§1)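 Glycan array binding is given as a within-array Z-score, which can be read as non-binding when negative. The arrays, 3228 of them, came from the Consortium for Functional Glycomics database and were retained only where the protein sequence was available. Z-scores were averaged across arrays of the same protein sequence at different concentrations or buffers and across linkers.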
# [2] = biological target: Gal(b1-4)GlcNAc(b1-2)[Gal(b1-4)GlcNAc(b1-4)]Man(a1-3)[Gal(b1-4)GlcNAc(b1-2)Man(a1-6)]Man(b1-4)GlcNAc(b1-4)GlcNAc
# How it was run: as §1
# [3] = biological target: Gal(b1-4)GlcNAc(b1-2)[Gal(b1-4)GlcNAc(b1-4)]Man(a1-3)[Gal(b1-4)GlcNAc(b1-2)[Gal(b1-4)GlcNAc(b1-6)]Man(a1-6)]Man(b1-4)GlcNAc(b1-4)GlcNAc
# How it was run: as §1
# [4] = biological target: Gal(b1-4)GlcNAc(b1-2)[Gal(b1-4)GlcNAc(b1-4)]Man(a1-3)[GlcNAc(b1-4)][Gal(b1-4)GlcNAc(b1-2)Man(a1-6)]Man(b1-4)GlcNAc(b1-4)GlcNAc
# How it was run: as §1
# [5] = biological target: Gal(b1-4)GlcNAc(b1-2)[Gal(b1-4)GlcNAc(b1-4)]Man(a1-3)[GlcNAc(b1-4)][Gal(b1-4)GlcNAc(b1-2)[Gal(b1-4)GlcNAc(b1-6)]Man(a1-6)]Man(b1-4)GlcNAc(b1-4)GlcNAc
# How it was run: as §1
# [6] = biological target: Gal(b1-4)GlcNAc(b1-2)[Gal(b1-4)GlcNAc(b1-6)]Man(a1-6)[Gal(b1-4)GlcNAc(b1-2)Man(a1-3)]Man(b1-4)GlcNAc(b1-4)GlcNAc
# How it was run: as §1
# [7] = biological target: Gal(b1-4)GlcNAc(b1-2)[Gal(b1-4)GlcNAc(b1-6)]Man(a1-6)[Gal(b1-4)GlcNAc(b1-2)Man(a1-3)]Man(b1-4)GlcNAc(b1-4)[Fuc(a1-6)]GlcNAc
# How it was run: as §1
# [8] = biological target: Gal(b1-4)GlcNAc(b1-2)[Gal(b1-4)GlcNAc(b1-6)]Man(a1-6)[GlcNAc(b1-4)][Gal(b1-4)GlcNAc(b1-2)Man(a1-3)]Man(b1-4)GlcNAc(b1-4)GlcNAc
# How it was run: as §1
# [9] = biological target: Gal(b1-4)GlcNAc(b1-2)[Gal(b1-4)GlcNAc(b1-6)]Man(a1-6)[GlcNAc(b1-4)][Gal(b1-4)GlcNAc(b1-2)[Gal(b1-4)GlcNAc(b1-4)]Man(a1-3)]Man(b1-4)GlcNAc(b1-4)[Fuc(a1-6)]GlcNAc
# How it was run: as §1
# [10] = biological target: Gal(b1-4)GlcNAc(b1-3)Gal(b1-3)GalNAc
# How it was run: as §1
# [11] = biological target: Gal(b1-4)GlcNAc(b1-3)Gal(b1-3)GlcNAc
# How it was run: as §1
# [12] = biological target: Gal(b1-4)GlcNAc(b1-3)Gal(b1-4)Glc
# How it was run: as §1
# [13] = biological target: Gal(b1-4)GlcNAc(b1-3)Gal(b1-4)GlcNAc
# How it was run: as §1
# [14] = biological target: Gal(b1-4)GlcNAc(b1-3)Gal(b1-4)GlcNAc(b1-2)Man(a1-3)[Gal(b1-4)GlcNAc(b1-3)Gal(b1-4)GlcNAc(b1-2)Man(a1-6)]Man(b1-4)GlcNAc(b1-4)GlcNAc
# How it was run: as §1
# [15] = biological target: Gal(b1-4)GlcNAc(b1-3)Gal(b1-4)GlcNAc(b1-2)Man(a1-3)[Gal(b1-4)GlcNAc(b1-3)Gal(b1-4)GlcNAc(b1-2)Man(a1-6)]Man(b1-4)GlcNAc(b1-4)[Fuc(a1-6)]GlcNAc
# How it was run: as §1
# [16] = biological target: Gal(b1-4)GlcNAc(b1-3)Gal(b1-4)GlcNAc(b1-2)[Gal(b1-4)GlcNAc(b1-3)Gal(b1-4)GlcNAc(b1-6)]Man(a1-6)[Gal(b1-4)GlcNAc(b1-3)Gal(b1-4)GlcNAc(b1-2)Man(a1-3)]Man(b1-4)GlcNAc(b1-4)GlcNAc
# How it was run: as §1
# [17] = biological target: Gal(b1-4)GlcNAc(b1-3)Gal(b1-4)GlcNAc(b1-2)[Gal(b1-4)GlcNAc(b1-3)Gal(b1-4)GlcNAc(b1-6)]Man(a1-6)[Gal(b1-4)GlcNAc(b1-3)Gal(b1-4)GlcNAc(b1-2)Man(a1-3)]Man(b1-4)GlcNAc(b1-4)[Fuc(a1-6)]GlcNAc
# How it was run: as §1
# [18] = biological target: Gal(b1-4)GlcNAc(b1-3)Gal(b1-4)GlcNAc(b1-3)Gal(b1-4)GlcNAc
# How it was run: as §1
# [19] = biological target: Gal(b1-4)GlcNAc(b1-3)Gal(b1-4)GlcNAc(b1-3)Gal(b1-4)GlcNAc(b1-2)Man(a1-3)[Gal(b1-4)GlcNAc(b1-3)Gal(b1-4)GlcNAc(b1-3)Gal(b1-4)GlcNAc(b1-2)Man(a1-6)]Man(b1-4)GlcNAc(b1-4)GlcNAc
# How it was run: as §1
# [20] = biological target: Gal(b1-4)GlcNAc(b1-3)Gal(b1-4)GlcNAc(b1-3)Gal(b1-4)GlcNAc(b1-2)Man(a1-3)[Gal(b1-4)GlcNAc(b1-3)Gal(b1-4)GlcNAc(b1-3)Gal(b1-4)GlcNAc(b1-2)Man(a1-6)]Man(b1-4)GlcNAc(b1-4)[Fuc(a1-6)]GlcNAc
# How it was run: as §1
# [21] = biological target: Gal(b1-4)GlcNAc(b1-3)Gal(b1-4)GlcNAc(b1-3)Gal(b1-4)GlcNAc(b1-2)[Gal(b1-4)GlcNAc(b1-3)Gal(b1-4)GlcNAc(b1-3)Gal(b1-4)GlcNAc(b1-6)]Man(a1-6)[Gal(b1-4)GlcNAc(b1-3)Gal(b1-4)GlcNAc(b1-3)Gal(b1-4)GlcNAc(b1-2)Man(a1-3)]Man(b1-4)GlcNAc(b1-4)[Fuc(a1-6)]GlcNAc
# How it was run: as §1
# [22] = biological target: Gal(b1-4)GlcNAc(b1-3)Gal(b1-4)GlcNAc(b1-3)Gal(b1-4)GlcNAc(b1-3)Gal(b1-4)GlcNAc(b1-2)Man(a1-3)[Gal(b1-4)GlcNAc(b1-3)Gal(b1-4)GlcNAc(b1-3)Gal(b1-4)GlcNAc(b1-3)Gal(b1-4)GlcNAc(b1-2)Man(a1-6)]Man(b1-4)GlcNAc(b1-4)GlcNAc
# How it was run: as §1
binder,measurement,setting,value
B1,glycan array binding signal (z-score),[1],-0.172
same,glycan array binding signal (z-score),[2],-0.315
same,glycan array binding signal (z-score),[3],-0.482
same,glycan array binding signal (z-score),[4],-0.482
same,glycan array binding signal (z-score),[5],-0.364
same,glycan array binding signal (z-score),[6],-0.201
same,glycan array binding signal (z-score),[7],0.172
same,glycan array binding signal (z-score),[8],-0.546
same,glycan array binding signal (z-score),[9],-0.337
same,glycan array binding signal (z-score),[10],-0.736
same,glycan array binding signal (z-score),[11],-0.491
same,glycan array binding signal (z-score),[12],-0.535
same,glycan array binding signal (z-score),[13],-0.923
same,glycan array binding signal (z-score),[14],4.08
same,glycan array binding signal (z-score),[15],0.899
same,glycan array binding signal (z-score),[16],1.39
same,glycan array binding signal (z-score),[17],1.53
same,glycan array binding signal (z-score),[18],-1.02
same,glycan array binding signal (z-score),[19],4
same,glycan array binding signal (z-score),[20],2.03
same,glycan array binding signal (z-score),[21],2.31
same,glycan array binding signal (z-score),[22],1.26

# Random excerpt: 2 records from the list, in no set order.
binder,measurement,setting,value
B1,glycan array binding signal (z-score),[13],-0.923
same,glycan array binding signal (z-score),[21],2.31
